In this assay the target is T1, Myc-tagged TRIM59 (tripartite motif 59) (UniProt Q922Y2).
T1 sequence: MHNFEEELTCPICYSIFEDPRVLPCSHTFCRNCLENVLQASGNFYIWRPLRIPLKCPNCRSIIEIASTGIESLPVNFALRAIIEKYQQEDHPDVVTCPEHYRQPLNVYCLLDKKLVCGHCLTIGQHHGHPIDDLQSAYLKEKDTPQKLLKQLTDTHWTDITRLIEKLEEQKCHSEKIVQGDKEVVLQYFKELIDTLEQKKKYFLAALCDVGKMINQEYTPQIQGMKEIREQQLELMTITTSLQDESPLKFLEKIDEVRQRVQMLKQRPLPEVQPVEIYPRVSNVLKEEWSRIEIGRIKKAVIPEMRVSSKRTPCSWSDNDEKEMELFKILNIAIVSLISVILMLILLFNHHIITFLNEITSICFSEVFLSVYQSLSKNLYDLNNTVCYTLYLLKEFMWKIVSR
Kind of assay: affinity purification with mass spectrometry; HEK293T cells overexpressing Myc-tagged TRIM59; lysed at 4 °C; anti-Myc antibody and Protein G beads; NP-40 lysis buffer (1% NP-40, 50 mM Tris-HCl pH 7.4, 150 mM NaCl); mass spectrometry at BGI.

Protein sequences, listed by entry. Tags and fused reporters are not part of them.
UniProt P42224: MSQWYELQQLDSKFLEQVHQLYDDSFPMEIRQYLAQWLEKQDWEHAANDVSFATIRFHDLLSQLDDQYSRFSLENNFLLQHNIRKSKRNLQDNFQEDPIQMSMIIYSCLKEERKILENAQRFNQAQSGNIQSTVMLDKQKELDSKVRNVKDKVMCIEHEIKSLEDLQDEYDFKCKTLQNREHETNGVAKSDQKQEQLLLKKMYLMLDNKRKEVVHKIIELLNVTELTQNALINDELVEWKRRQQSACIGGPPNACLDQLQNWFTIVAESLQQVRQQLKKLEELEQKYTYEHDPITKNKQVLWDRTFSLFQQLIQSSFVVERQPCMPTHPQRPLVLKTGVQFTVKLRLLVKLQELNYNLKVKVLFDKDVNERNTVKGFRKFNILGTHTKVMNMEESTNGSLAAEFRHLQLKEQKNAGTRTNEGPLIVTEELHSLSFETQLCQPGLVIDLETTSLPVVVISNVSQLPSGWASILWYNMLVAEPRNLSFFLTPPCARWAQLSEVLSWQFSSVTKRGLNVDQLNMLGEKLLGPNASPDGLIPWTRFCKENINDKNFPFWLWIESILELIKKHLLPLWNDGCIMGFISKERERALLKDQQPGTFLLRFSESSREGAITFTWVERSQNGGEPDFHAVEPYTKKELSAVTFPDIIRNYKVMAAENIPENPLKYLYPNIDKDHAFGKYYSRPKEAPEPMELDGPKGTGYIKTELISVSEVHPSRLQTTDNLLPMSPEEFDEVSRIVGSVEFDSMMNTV

These are yes or no findings as the source states them, for the method shown. In cells and extracts the contact can be indirect. A yes stands for co-enrichment or nearness to the bait. Other partners may have been found. Sequences can lack the tags named with a protein.

“STAT1 (endogenous, HEK293T) (from UniProt P42224 1-750)”: the binding result is listed as “binds”.
